Laboratory results as given in PubChem BioAssay AID1347426 (Functional Genomics Laboratory (NCATS/FGL), 2020).
Hit rate of the full screen: of about 31,000 sequences, about 1,400 (4.5%) were called active.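 How the source made its calls: active means median seed-adjusted z-score above 1 or below -1; inactive means the rest.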 This is one part of the list.

Experiment: Novel Modifiers of Survival Motor Neuron (SMN) Protein: Gene Identification via Genome-wide siRNA Screen;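 further: luminescence tracks full-length SMN protein made from the SMN2 reporter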
Details: HEK293T SMN2-luciferase reporter, siRNA knockdown, 72 h; actives lie on both sides
In short: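 Steps: spot 1 pmol siRNA, add Lipofectamine RNAiMax in serum-free DMEM, seed HEK293T SMN2–luciferase reporter cells; incubate 72 h at 37 °C; add ONE-Glo; normalize luminescence to control siRNA, log10, MAD. Candidates: |MAD| > 1.0.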

Row | Sequence | median seed-adjusted z-score
1 | CAGUGGAUCUAUAUGAACATT against KIT | inactive: -0.686
2 | CCAAGUUAUUGCUAUCAGATT against PPCS | inactive: 0
3 | GGUGCAUAAGGAGAACUUUTT against TRPM4 | inactive: 0.0519
4 | CCGUAAAGGCUCAUCCAAATT against CCNI | inactive: -0.174
5 | GGCCUAUGGUGUCCCAGUATT against CDK10 | inactive: 0.327
6 | CAGUUAUACUCAGAAGAGATT against ZNF155 | inactive: 0.698
7 | GAAGAGUUACUACAGUAAATT against MYT1 | inactive: -0.292
8 | CUCCCUACGAUGUACCCUATT against MYO15A | inactive: 0.0508
9 | UCGUUGAUGUUGGACAAUUTT against METTL2A | inactive: -0.49
10 | AGUGGAAGGUCCUAAAUUATT against 9-Mar | inactive: 0.261
11 | ACGGCUACGUGGUAAAGGATT against RPS6KA1 | inactive: 0.194
12 | GCUCCAAUGGGUCUCAGUATT against TFDP1 | inactive: 0.0449
13 | GGAUGGGCCUUGAAGCCUUTT against GPR97 | inactive: -0.0155
14 | GGUGUUUGAUAUACAGAGGTT against RABL2A | inactive: 0.794
15 | GAAGGAAUCGAAGAAUUAATT against GTPBP10 | inactive: 0
16 | GAGAUGCGGUUGACCCUAATT against KIF13B | inactive: 0.456
17 | CUACCGCAACCUCACCCUATT against B3GALT4 | inactive: 0.233
18 | GUAUGACUAUGGAUCUAAUTT against HOXC6 | inactive: -0.137
19 | GCAUUGACCUAGUCAAAUUTT against TNNI3K | inactive: -0.178
20 | CAUCGACUGUCGAUACCCATT against CDC25A | inactive: 0.235
21 | UGAUGACCCUGUCCCUGCATT against FOXN4 | inactive: 0.15
22 | GGCUUUUGGAGUAUGUAGATT against ZNF529 | inactive: -0.243
23 | ACCUAUUACUCGCGCCGGATT against GPR6 | inactive: 0
24 | CAAACAAUAUGAGAGUGUUTT against IL7 | inactive: 0.253
25 | GUGUGGUGAUGAUCGAAAATT against YWHAQ | inactive: -0.412
26 | AGAUUGAGUUCACACCUGATT against MYL3 | inactive: 0.212
27 | GCGGAAAGUUCUUCGAAUATT against SLC9A7 | inactive: 0.349

An excerpt of these results, in markdown.

| Row | Sequence | median seed-adjusted z-score |
| --- | --- | --- |
| 1 | CAGUGGAUCUAUAUGAACATT against KIT | inactive: -0.686 |
| 3 | GGUGCAUAAGGAGAACUUUTT against TRPM4 | inactive: 0.0519 |
| 7 | GAAGAGUUACUACAGUAAATT against MYT1 | inactive: -0.292 |
| 8 | CUCCCUACGAUGUACCCUATT against MYO15A | inactive: 0.0508 |
| 9 | UCGUUGAUGUUGGACAAUUTT against METTL2A | inactive: -0.49 |
| 11 | ACGGCUACGUGGUAAAGGATT against RPS6KA1 | inactive: 0.194 |
| 12 | GCUCCAAUGGGUCUCAGUATT against TFDP1 | inactive: 0.0449 |
| 16 | GAGAUGCGGUUGACCCUAATT against KIF13B | inactive: 0.456 |
| 18 | GUAUGACUAUGGAUCUAAUTT against HOXC6 | inactive: -0.137 |
| 20 | CAUCGACUGUCGAUACCCATT against CDC25A | inactive: 0.235 |
| 21 | UGAUGACCCUGUCCCUGCATT against FOXN4 | inactive: 0.15 |
| 22 | GGCUUUUGGAGUAUGUAGATT against ZNF529 | inactive: -0.243 |

(list continues)

Row | Sequence | median seed-adjusted z-score
28 | GAUGGGAUCUUUCACCAGATT against NLN | inactive: 0.248
29 | CCCAUGCCCAGAUCAAGAATT against MAN2C1 | inactive: -0.489
30 | UGAGCGAGUUGAUUUCACATT against ATF5 | inactive: 0.233
31 | GGAGCUAGCCGAAUUCGAATT against SAT2 | inactive: -0.43
32 | ACAGCUCUGGGUACAACAATT against ZNF167 | inactive: 0.409
33 | GUAUCUGACUGACAUCCUUTT against PLCH2 | inactive: 0.593
34 | CCAUCAUGGUGACUAAGGUTT against PDLIM2 | inactive: 0.267
35 | GGCUUCAUGUGAUAUGACATT against ZNF324 | inactive: 0
36 | GCGUAAAUAUUGACAUCUUTT against NEK4 | inactive: -0.076
37 | CAGAGCUUCUUUUCCCUAATT against S100A10 | inactive: 0.366
38 | CCGUAUAUCUGGUGGUUAUTT against PLOD2 | inactive: -0.281
39 | GCAUGUCUCUUCUCGAAGATT against SCPEP1 | inactive: -0.99
40 | CAGUUUCUGUGAAUAGGCUTT against ARNT | inactive: -0.244
41 | GCAACUUUGUCAACUACAATT against RFFL | inactive: -0.437
42 | CCUCCGUCAUGUUAUCAAUTT against PBX3 | inactive: 0.847
43 | GCUAAAGACCUAAUAGUCATT against BCAT1 | inactive: -0.604
44 | CAACUGGAAGAUUACUUGATT against PLD1 | inactive: 0.518
45 | GCUUAUUAUGAGUUUAAGATT against SFRS8 | inactive: -0.353
46 | CCUUGGAACGUGGACAGAATT against FARP1 | inactive: -0.487
47 | GCUCAGUACAGGCAAGUCATT against RASL12 | inactive: -0.256
48 | GUCGAUCAGAUGAUAAUGATT against AK2 | inactive: 0.418
49 | GCCCGUUUCCGUUACCUAATT against LDHC | inactive: 0.537
50 | GGAAGGUUUAGAAAGAAAATT against PDLIM4 | inactive: -0.637
51 | CAGUCCAUGUAUUACACCATT against IPO11 | inactive: -0.245
52 | GGAUAGCAAUGGAUACUGATT against DBT | inactive: -0.976
53 | GGAGCAGGAUGUGAGUAGATT against SHPK | inactive: 0
54 | GAGAAAGUAUGAGCGAAAATT against ST13 | inactive: 0.286
